One data set has as its system MBP tag protein. The data set can be described thus: EMSA. To be noted: MBP tag control; EMSA/Gel-Shift Kit (Beyotime) buffer, composition and pH not given; 0.2 pmol probe, 0.5-6 ug protein in 10 ul; 25 C, 20 min; recombinant protein; protein details: MBP (pMAL-c5x vector alone).
The target in data set [1] is T1, MBP/DBD (NlFoxO DNA-binding domain) (Nilaparvata lugens) (UniProt A0A0M3M6L7). The data set can be described thus: EMSA. To be noted: EMSA/Gel-Shift Kit (Beyotime) buffer, composition and pH not given, 0.2 pmol probe, 0.5-6 ug protein in 10 ul, 25 C, 20 min, recombinant protein, protein details: N-terminal MBP (pMAL-c5x).
Data set [2] addresses T1, MBP/DBD (NlFoxO DNA-binding domain) (Nilaparvata lugens). The data set can be described thus: competition with a labelled probe. To be noted: EMSA/Gel-Shift Kit (Beyotime) buffer, composition and pH not given, 0.2 pmol probe, 0.5-6 ug protein in 10 ul, 25 C, 20 min, recombinant protein, protein details: N-terminal MBP (pMAL-c5x). On the technique in general: Mobility shift assays separate free from complexed probe on a gel.

Where [3] appears, read: binds, weaker than FRE1, label: 5' Alexa Fluor 680 on strand 1.

For at least one entry, the source does not settle the construct or the ends of the probe. For some assays here: Negatives hold for the conditions tested. For some assays here: A weaker result is weaker than the reference pair of the same experiment.

In the case of “CTCTTTGTTAATTTGTTTACAACTTCAATTCCA (double strand) [FRE1]”, the binding result is on record as “no binding” in the data set on MBP tag protein; “binds” in data set [1] (strongest band of FRE1-5); “binds” in data set [2] (unlabeled FRE1 10x, 50x, 100x vs labeled FRE1, gradual reduction). For “TGTTGAAAAGTACGTAAACACTACTGGATCAAT (double strand) [FRE4]”, in data set [1] (setting [3]), the binding result was “binds more weakly”. Same read-out and setting: in the case of “TGACTTGTGAGTGGTAAACAGATGTTCATGCGA (double strand) [FRE2]” it was “binds more weakly”; in that of “TTCAATTTGGTATGTAAACAATCTAAATTAGAA (double strand) [FRE3]”, “binds more weakly”. As for “CTCTTTGTTAATTCCACTACAACTTCAATTCCA (double strand) [FRE1_m]”, the binding result in data set [2] (excess FRE1_m vs labeled FRE1, complex unchanged) is given as “no binding”.

For “TTGAAGTGTTTACAGTGTTTTGTTTACTTTGAT (double strand) [FRE5]”, in data set [1] (setting [3]), the binding result is “binds more weakly”.

(Values after publication PMC7899339.)
